Test results: patent US20180320217A1, “METHODS FOR SAMPLING AND MEASURING ORAL LAVAGE PROTEINS” (The Procter & Gamble Company, priority 2017, published 2018)

Tested on: proteins in oral lavage
Assay: Abundance of proteins in human oral lavage (SomaLogic), TABLE 1
Type: in vivo
Conditions: for Means (Original Scale) High bleeder BL / Means (Original Scale) High bleeder W4 / Means (Original Scale) Low bleeder BL: abundance in oral lavage; for Means (Original Scale) High bleeder BL: high bleeders (gingivitis); for Means (Original Scale) High bleeder BL / Means (Original Scale) Low bleeder BL: baseline; for Means (Original Scale) High bleeder W4 / Fold Change High bleeder W4 vs High bleeder BL: high bleeders; for Means (Original Scale) High bleeder W4: week 4 of investigative products; for Means (Original Scale) Low bleeder BL: low bleeders (healthy); for Fold Change High bleeder W4 vs High bleeder BL / Fold Change High bleeder BL vs Low bleeder BL: oral lavage; for Fold Change High bleeder W4 vs High bleeder BL: week 4 of treatment vs baseline; for Fold Change High bleeder BL vs Low bleeder BL: high vs low bleeders at baseline

Molecule	Means (Original Scale) High bleeder BL	Means (Original Scale) High bleeder W4	Means (Original Scale) Low bleeder BL	Fold Change High bleeder W4 vs High bleeder BL	Fold Change High bleeder BL vs Low bleeder BL
Secreted frizzled-related protein 1 (protein, UniProt Q8N474 32-314, looked up) Secreted frizzled-related …: SEYDYVSFQSDIGPYQSGRFYTKPPQCVDIPADLRLCHNVGYKKMVLPNLLEHETMAEVKQQASSWVPLLNKNCHAGTQVFLCSLFAPVCLDRPIYPCRWLCEAVRDSCEPVMQFFGFYWPEMLKCDKFPEGDVCIAMTPPNATEASKPQGTTVCPPCDNELKSEAIIEHLCASEFALRMKIKEVKKENGDKKIVPKKKKPLKLGPIKKKDLKKLVLYLKNGADCPCHQLDNLSHHFLIMGRKVKSQYLLTAIHKWDKKNKEFKNFMKKMKNHECPTFQSVFK	4666	2482	1212	0.59	3.68
Serine protease 27 (protein, UniProt Q9BQR3 35-290, looked up) Serine protease 27: MVGGQDTQEGEWPWQVSIQRNGSHFCGGSLIAEQWVLTAAHCFRNTSETSLYQVLLGARQLVQPGPHAMYARVRQVESNPLYQGTASSADVALVELEAPVPFTNYILPVCLPDPSVIFETGMNCWVTGWGSPSEEDLLPEPRILQKLAVPIIDTPKCNLLYSKDTEFGYQPKTIKNDMLCAGFEEGKKDACKGDSGGPLVCLVGQSWLQAGVISWGEGCARQNRPGVYIRVTAHHNWIHRIIPKLQFQPARLGGQK	10968	6186	7376	0.55	1.83
Pyridoxal kinase (protein, UniProt O00764 1-312, looked up) Pyridoxal kinase: MEEECRVLSIQSHVIRGYVGNRAATFPLQVLGFEIDAVNSVQFSNHTGYAHWKGQVLNSDELQELYEGLRLNNMNKYDYVLTGYTRDKSFLAMVVDIVQELKQQNPRLVYVCDPVLGDKWDGEGSMYVPEDLLPVYKEKVVPLADIITPNQFEAELLSGRKIHSQEEALRVMDMLHSMGPDTVVITSSDLPSPQGSNYLIVLGSQRRRNPAGSVVMERIRMDIRKVDAVFVGTGDLFAAMLLAWTHKHPNNLKVACEKTVSTLHHVLQRTIQCAKAQAGEGVRPSPMQLELRMVQSKRDIEDPEIVVQATVL	2457	1778	281	0.54	12.00
RNA-binding protein 39 (protein, UniProt Q14498 2-530, looked up) RNA-binding protein 39: ADDIDIEAMLEAPYKKDENKLSSANGHEERSKKRKKSKSRSRSHERKRSKSKERKRSRDRERKKSKSRERKRSRSKERRRSRSRSRDRRFRGRYRSPYSGPKFNSAIRGKIGLPHSIKLSRRRSRSKSPFRKDKSPVREPIDNLTPEERDARTVFCMQLAARIRPRDLEEFFSTVGKVRDVRMISDRNSRRSKGIAYVEFVDVSSVPLAIGLTGQRVLGVPIIVQASQAEKNRAAAMANNLQKGSAGPMRLYVGSLHFNITEDMLRGIFEPFGRIESIQLMMDSETGRSKGYGFITFSDSECAKKALEQLNGFELAGRPMKVGHVTERTDASSASSFLDSDELERTGIDLGTTGRLQLMARLAEGTGLQIPPAAQQALQMSGSLAFGAVAEFSFVIDLQTRLSQQTEASALAAAASVQPLATQCFQLSNMFNPQTEEEVGWDTEIKDDVIEECNKHGGVIHIYVDKNSAQGNVYVKCPSIAAAIAAVNALHGRWFAGKMITAAYVPLPTYHNLFPDSMTATQLLVPSRR	2206	1128	276	0.48	6.91
Repulsive guidance molecule A (protein, UniProt Q96B86 169-424, looked up) Repulsive guidance molecule A: PHLRTFTDRFQTCKVQGAWPLIDNNYLNVQVTNTPVLPGSAATATSKLTIIFKNFQECVDQKVYQAEMDELPAAFVDGSKNGGDKHGANSLKITEKVSGQHVEIQAKYIGTTIVVRQVGRYLTFAVRMPEEVVNAVEDWDSQGLYLCLRGCPLNQQIDFQAFHTNAEGTGARRLAAASPAPTAPETFPYETAVAKCKEKLPVEDLYYQACVFDLLTTGDVNFTLAAYYALEDVKMLHSNKDKLHLYERTRDLPGRA	10483	5917	2620	0.62	3.69
RGM domain family member B (protein, UniProt Q6NW40 46-413, looked up) Repulsive guidance molecule B: GDCQQPAQCRIQKCTTDFVSLTSHLNSAVDGFDSEFCKALRAYAGCTQRTSKACRGNLVYHSAVLGISDLMSQRNCSKDGPTSSTNPEVTHDPCNYHSHAGAREHRRGDQNPPSYLFCGLFGDPHLRTFKDNFQTCKVEGAWPLIDNNYLSVQVTNVPVVPGSSATATNKITIIFKAHHECTDQKVYQAVTDDLPAAFVDGTTSGGDSDAKSLRIVERESGHYVEMHARYIGTTVFVRQVGRYLTLAIRMPEDLAMSYEESQDLQLCVNGCPLSERIDDGQGQVSAILGHSLPRTSLVQAWPGYTLETANTQCHEKMPVKDIYFQSCVFDLLTTGDANFTAAAHSALEDVEALHPRKERWHIFPSSGN	9860	4375	1389	0.52	6.17
Ribosome maturation protein SBDS (protein, UniProt Q9Y3A5 2-250, looked up) Ribosome maturation protein …: SIFTPTNQIRLTNVAVVRMKRAGKRFEIACYKNKVVGWRSGVEKDLDEVLQTHSVFVNVSKGQVAKKEDLISAFGTDDQTEICKQILTKGEVQVSDKERHTQLEQMFRDIATIVADKCVNPETKRPYTVILIERAMKDIHYSVKTNKSTKQQALEVIKQLKEKMKIERAHMRLRFILPVNEGKKLKEKLKPLIKVIESEDYGQQLEIVCLIDPGCFREIDELIKKETKGKGSLEVLNLKDVEEGDEKFE	595	263	230	0.60	2.55
Semaphorin-6A (protein, UniProt Q9H2E6 19-1030, looked up) Semaphorin-6A: GFPEDSEPISISHGNYTKQYPVFVGHKPGRNTTQRHRLDIQMIMIMNGTLYIAARDHIYTVDIDTSHTEEIYCSKKLTWKSRQADVDTCRMKGKHKDECHNFIKVLLKKNDDALFVCGTNAFNPSCRNYKMDTLEPFGDEFSGMARCPYDAKHANVALFADGKLYSATVTDFLAIDAVIYRSLGESPTLRTVKHDSKWLKEPYFVQAVDYGDYIYFFFREIAVEYNTMGKVVFPRVAQVCKNDMGGSQRVLEKQWTSFLKARLNCSVPGDSHFYFNILQAVTDVIRINGRDVVLATFSTPYNSIPGSAVCAYDMLDIASVFTGRFKEQKSPDSTWTPVPDERVPKPRPGCCAGSSSLERYATSNEFPDDTLNFIKTHPLMDEAVPSIFNRPWFLRTMVRYRLTKIAVDTAAGPYQNHTVVFLGSEKGIILKFLARIGNSGFLNDSLFLEEMSVYNSEKCSYDGVEDKRIMGMQLDRASSSLYVAFSTCVIKVPLGRCERHGKCKKTCIASRDPYCGWIKEGGACSHLSPNSRLTFEQDIERGNTDGLGDCHNSFVALNGHSSSLLPSTTTSDSTAQEGYESRGGMLDWKHLLDSPDSTDPLGAVSSHNHQDKKGVIRESYLKGHDQLVPVTLLAIAVILAFVMGAVFSGITVYCVCDHRRKDVAVVQRKEKELTHSRRGSMSSVTKLSGLFGDTQSKDPKPEAILTPLMHNGKLATPGNTAKMLIKADQHHLDLTALPTPESTPTLQQKRKPSRGSREWERNQNLINACTKDMPPMGSPVIPTDLPLRASPSHIPSVVVLPITQQGYQHEYVDQPKMSEVAQMALEDQAATLEYKTIKEHLSSKSPNHGVNLVENLDSLPPKVPQREASLGPPGASLSQTGLSKRLEMHHSSSYGVDYKRSYPTNSLTRSHQATTLKRNNTNSSNSSHLSRNQSFGRGDNPPPAPQRVDSIQVHSSQPSGQAVTVSRQPSLNAYNSLTRSGLKRTPSLKPDVPPKPSFAPLSTSMKPNDACT	3637	2503	396	0.68	11.58
Rab GDP dissociation inhibitor beta (protein, UniProt P50395 1-445, looked up) Rab GDP dissociation …: MNEEYDVIVLGTGLTECILSGIMSVNGKKVLHMDRNPYYGGESASITPLEDLYKRFKIPGSPPESMGRGRDWNVDLIPKFLMANGQLVKMLLYTEVTRYLDFKVTEGSFVYKGGKIYKVPSTEAEALASSLMGLFEKRRFRKFLVYVANFDEKDPRTFEGIDPKKTTMRDVYKKFDLGQDVIDFTGHALALYRTDDYLDQPCYETINRIKLYSESLARYGKSPYLYPLYGLGELPQGFARLSAIYGGTYMLNKPIEEIIVQNGKVIGVKSEGEIARCKQLICDPSYVKDRVEKVGQVIRVICILSHPIKNTNDANSCQIIIPQNQVNRKSDIYVCMISFAHNVAAQGKYIAIVSTTVETKEPEKEIRPALELLEPIEQKFVSISDLLVPKDLGTESQIFISRTYDATTHFETTCDDIKNIYKRMTGSEFDFEEMKRKKNDIYGED	173349	149926	49425	0.90	6.49
Secreted and transmembrane protein 1 (protein, UniProt Q8WVN6 29-248, looked up) Secreted and transmembrane …: QNEGWDSPICTEGVVSVSWGENTVMSCNISNAFSHVNIKLRAHGQESAIFNEVAPGYFSRDGWQLQVQGGVAQLVIKGARDSHAGLYMWHLVGHQRNNRQVTLEVSGAEPQSAPDTGFWPVPAVVTAVFILLVALVMFAWYRCRCSQQRREKKFFLLEPQMKVAALRAGAQQGLSRASAELWTPDSEPTPRPLALVFKPSPLGALELLSPQPLFPYAADP	1633	905	400	0.64	3.57
